Measured values from article doi:10.1101/2023.09.29.560113.
These are yes or no findings as the source states them, for the method shown. For some assays here: Binding seen in cells or lysates may run through a third protein. Some entries that bind do so weakly or less than the wild type. For some assays here: Where a sequence is shown, tags or fusion partners need not be part of it.

Sequences of proteins named here, by UniProt entry; tags and fusion partners are left off.
UniProt O04157: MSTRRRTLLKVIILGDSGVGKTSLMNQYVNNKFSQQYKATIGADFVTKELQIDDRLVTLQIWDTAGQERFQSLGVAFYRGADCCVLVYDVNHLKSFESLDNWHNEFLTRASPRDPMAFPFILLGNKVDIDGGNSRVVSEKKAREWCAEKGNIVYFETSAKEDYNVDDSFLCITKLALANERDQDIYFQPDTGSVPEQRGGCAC

T1: NET4A, rBiFC fusion (Arabidopsis thaliana) (UniProt F4KEW8)
T1 sequence: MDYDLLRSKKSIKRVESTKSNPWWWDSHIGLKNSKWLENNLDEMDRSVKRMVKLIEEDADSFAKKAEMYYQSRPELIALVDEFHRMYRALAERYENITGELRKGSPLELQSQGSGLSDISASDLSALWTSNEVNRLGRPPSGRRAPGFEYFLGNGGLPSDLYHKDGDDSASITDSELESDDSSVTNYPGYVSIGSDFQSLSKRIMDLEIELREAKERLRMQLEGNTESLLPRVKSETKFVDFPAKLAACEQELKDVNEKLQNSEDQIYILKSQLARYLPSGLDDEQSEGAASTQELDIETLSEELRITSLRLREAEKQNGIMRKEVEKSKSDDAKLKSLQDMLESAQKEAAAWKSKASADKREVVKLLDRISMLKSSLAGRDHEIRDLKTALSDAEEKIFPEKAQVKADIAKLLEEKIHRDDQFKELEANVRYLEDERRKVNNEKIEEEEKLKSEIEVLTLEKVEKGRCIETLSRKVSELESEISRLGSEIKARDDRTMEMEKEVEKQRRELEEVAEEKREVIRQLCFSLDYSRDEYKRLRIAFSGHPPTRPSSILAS

T2: NET3C-Cub (Arabidopsis thaliana) (UniProt O82259)
T2 sequence: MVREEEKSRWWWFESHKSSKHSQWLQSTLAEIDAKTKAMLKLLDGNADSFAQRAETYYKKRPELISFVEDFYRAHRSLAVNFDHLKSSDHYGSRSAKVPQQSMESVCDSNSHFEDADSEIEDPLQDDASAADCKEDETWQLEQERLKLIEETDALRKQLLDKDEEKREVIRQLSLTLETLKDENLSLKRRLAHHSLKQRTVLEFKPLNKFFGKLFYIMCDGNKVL

T3: NET4A-Cub (Arabidopsis thaliana) (UniProt F4KEW8)
T3 sequence: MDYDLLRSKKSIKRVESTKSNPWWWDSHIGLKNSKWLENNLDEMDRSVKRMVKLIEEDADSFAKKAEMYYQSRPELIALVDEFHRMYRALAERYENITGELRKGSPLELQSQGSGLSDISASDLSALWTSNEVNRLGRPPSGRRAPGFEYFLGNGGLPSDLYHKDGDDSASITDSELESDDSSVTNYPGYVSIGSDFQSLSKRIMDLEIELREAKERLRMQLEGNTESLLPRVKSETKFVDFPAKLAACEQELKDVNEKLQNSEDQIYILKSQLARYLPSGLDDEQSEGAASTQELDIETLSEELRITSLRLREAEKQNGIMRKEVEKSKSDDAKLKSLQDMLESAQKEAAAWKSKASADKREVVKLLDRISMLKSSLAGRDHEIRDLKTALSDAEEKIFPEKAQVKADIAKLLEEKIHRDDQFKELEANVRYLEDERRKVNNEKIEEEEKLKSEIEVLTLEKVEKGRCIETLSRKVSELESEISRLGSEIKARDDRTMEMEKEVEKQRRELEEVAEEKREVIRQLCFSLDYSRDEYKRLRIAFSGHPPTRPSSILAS

T4: NET4B-Cub (Arabidopsis thaliana) (UniProt Q84VY2)
T4 sequence: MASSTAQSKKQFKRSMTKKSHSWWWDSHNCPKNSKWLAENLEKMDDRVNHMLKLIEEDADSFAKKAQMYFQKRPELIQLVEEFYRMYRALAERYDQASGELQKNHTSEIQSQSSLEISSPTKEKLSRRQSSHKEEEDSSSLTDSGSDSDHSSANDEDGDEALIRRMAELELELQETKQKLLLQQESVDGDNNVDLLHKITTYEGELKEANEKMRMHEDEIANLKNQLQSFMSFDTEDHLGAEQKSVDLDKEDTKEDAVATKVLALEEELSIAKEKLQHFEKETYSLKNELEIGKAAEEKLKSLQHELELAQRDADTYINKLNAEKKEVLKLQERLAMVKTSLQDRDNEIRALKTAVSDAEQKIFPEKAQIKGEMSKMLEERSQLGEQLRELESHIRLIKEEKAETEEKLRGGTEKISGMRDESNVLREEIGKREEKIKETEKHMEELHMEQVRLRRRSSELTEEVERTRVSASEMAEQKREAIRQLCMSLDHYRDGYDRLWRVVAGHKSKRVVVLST

T5: NET3A-Cub (Arabidopsis thaliana) (UniProt Q66GR8)
T5 sequence: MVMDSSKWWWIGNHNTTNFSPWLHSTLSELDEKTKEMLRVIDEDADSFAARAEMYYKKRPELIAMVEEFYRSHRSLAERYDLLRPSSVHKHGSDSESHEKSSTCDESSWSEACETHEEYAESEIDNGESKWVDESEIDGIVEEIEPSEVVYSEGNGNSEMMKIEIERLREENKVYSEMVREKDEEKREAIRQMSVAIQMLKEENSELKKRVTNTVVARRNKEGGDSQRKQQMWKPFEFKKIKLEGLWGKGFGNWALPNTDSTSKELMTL


How the values were obtained:
[1] = molecular target: T1, NET4A, rBiFC fusion (Arabidopsis thaliana); assay: split reporter
[2] = molecular target: T2, NET3C-Cub (Arabidopsis thaliana); assay: two-hybrid
[3] = molecular target: T3, NET4A-Cub (Arabidopsis thaliana); assay: two-hybrid
[4] = molecular target: T4, NET4B-Cub (Arabidopsis thaliana); assay: two-hybrid
[5] = molecular target: T5, NET3A-Cub (Arabidopsis thaliana); assay: two-hybrid

binding [1]	binding [2]	binding [3]	binding [4]	binding [5]	Molecule
–	–	binds	–	–	RABC1, mbSUS fusion (protein, UniProt O23657 1-212) MGSSSGQPEFDYLFKVLLIGDSGVGKSSLLLSFTSNTFDDLSPTIGVDFKVKYLTIGEKKLKLAIWDTAGQERFRTLTSSYYRGAQGIIMVYDVTRRDTFTNLSDIWAKEIDLYSTNQDCIKMLVGNKVDKESERAVSKKEGIDFAREYGCLFLECSAKTRVNVEQCFEELVLKILETPSLTAEGSSGGKKNIFKQNPAQTTSTSSSYCCSS
–	binds	binds	binds	binds	NubG-RABG3A (protein, UniProt Q948K8 1-206) MATRRRTLLKVIVLGDSGVGKTSLMNQYVHKKFSMQYKATIGADFVTKELQIGEKLVTLQIWDTAGQERFQSLGAAFYRGADCCALVYDVNVLRSFDNLETWHEEFLKQASPSDPKTFPFIVLGNKIDVDGGSSRVVSDKKAADWCASNGNIPYFETSAKDDFNVDEAFLTIAKTALANEHEQDIYFQGIPDAVTENEPKGGGCAC
–	–	binds	binds	–	NubG-VAP27-1 (protein, UniProt Q8VZ95 1-256) MSNIDLIGMSNRDLIGMSNSELLTVEPLDLQFPFELKKQISCSLYLTNKTDNNVAFKVKTTNPKKYCVRPNTGVVLPRSTCEVLVTMQAQKEAPSDMQCKDKFLLQGVIASPGVTAKEVTPEMFSKEAGHRVEETKLRVTYVAPPRPPSPVHEGSEEGSSPRASVSDNGHGSEFSFERFIVDNKAGHQENTSEARALITKLTEEKQSAIQLNNRLQRELDQLRRESKKSQSGGIPFMYVLLVGLIGLILGYIMKRT

Further lines, the molecule ahead of its results:

Molecule	binding [1]	binding [2]	binding [3]	binding [4]	binding [5]
RABG3B, rBiFC fusion (from UniProt O04157 1-203)	binds	–	–	–	–
NubG-RABG3B (from UniProt O04157 1-203)	–	binds	binds	binds	binds
RABC1, rBiFC fusion (protein, UniProt O23657 1-212) MGSSSGQPEFDYLFKVLLIGDSGVGKSSLLLSFTSNTFDDLSPTIGVDFKVKYLTIGEKKLKLAIWDTAGQERFRTLTSSYYRGAQGIIMVYDVTRRDTFTNLSDIWAKEIDLYSTNQDCIKMLVGNKVDKESERAVSKKEGIDFAREYGCLFLECSAKTRVNVEQCFEELVLKILETPSLTAEGSSGGKKNIFKQNPAQTTSTSSSYCCSS	binds	–	–	–	–
RABG3A, rBiFC fusion (protein, UniProt Q948K8 1-206) MATRRRTLLKVIVLGDSGVGKTSLMNQYVHKKFSMQYKATIGADFVTKELQIGEKLVTLQIWDTAGQERFQSLGAAFYRGADCCALVYDVNVLRSFDNLETWHEEFLKQASPSDPKTFPFIVLGNKIDVDGGSSRVVSDKKAADWCASNGNIPYFETSAKDDFNVDEAFLTIAKTALANEHEQDIYFQGIPDAVTENEPKGGGCAC	binds	–	–	–	–
